This is one part of the list.

Chains of the proteins cited; added tags and fusions are not shown. Lines headed by an entry give the natural chain unless they say otherwise; changes in a name come on top.
UniProt Q8IXM6: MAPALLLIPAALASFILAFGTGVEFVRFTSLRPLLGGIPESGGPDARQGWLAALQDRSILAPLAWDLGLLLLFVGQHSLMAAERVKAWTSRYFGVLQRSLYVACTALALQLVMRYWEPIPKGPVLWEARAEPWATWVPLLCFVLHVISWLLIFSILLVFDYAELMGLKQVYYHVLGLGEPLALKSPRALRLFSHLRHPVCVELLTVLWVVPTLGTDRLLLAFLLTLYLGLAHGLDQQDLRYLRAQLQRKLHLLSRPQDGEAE
UniProt Q8NC67: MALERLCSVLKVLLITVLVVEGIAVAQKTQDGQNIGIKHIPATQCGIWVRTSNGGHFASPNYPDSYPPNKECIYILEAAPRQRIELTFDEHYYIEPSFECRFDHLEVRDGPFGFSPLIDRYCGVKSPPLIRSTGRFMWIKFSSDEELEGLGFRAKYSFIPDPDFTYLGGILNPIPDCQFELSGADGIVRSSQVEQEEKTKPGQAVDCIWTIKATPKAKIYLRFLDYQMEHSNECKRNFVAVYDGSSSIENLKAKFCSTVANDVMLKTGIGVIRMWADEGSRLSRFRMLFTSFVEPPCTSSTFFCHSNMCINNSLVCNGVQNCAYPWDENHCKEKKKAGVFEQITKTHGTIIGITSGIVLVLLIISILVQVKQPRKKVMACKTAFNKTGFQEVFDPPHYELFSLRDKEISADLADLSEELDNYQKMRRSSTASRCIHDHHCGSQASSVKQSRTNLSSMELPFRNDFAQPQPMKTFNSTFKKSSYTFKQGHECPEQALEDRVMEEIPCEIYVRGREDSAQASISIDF
UniProt Q8N5F7: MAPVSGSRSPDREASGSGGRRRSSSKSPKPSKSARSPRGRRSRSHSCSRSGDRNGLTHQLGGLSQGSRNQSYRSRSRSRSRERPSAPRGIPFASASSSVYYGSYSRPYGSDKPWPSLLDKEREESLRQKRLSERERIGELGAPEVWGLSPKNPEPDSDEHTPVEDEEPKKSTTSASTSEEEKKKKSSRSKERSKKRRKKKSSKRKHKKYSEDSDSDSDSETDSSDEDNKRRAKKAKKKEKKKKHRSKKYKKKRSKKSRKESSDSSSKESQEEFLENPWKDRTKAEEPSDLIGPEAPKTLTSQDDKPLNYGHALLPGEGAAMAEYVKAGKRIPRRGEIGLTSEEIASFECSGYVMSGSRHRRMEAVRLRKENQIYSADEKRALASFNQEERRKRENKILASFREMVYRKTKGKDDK
UniProt O75052: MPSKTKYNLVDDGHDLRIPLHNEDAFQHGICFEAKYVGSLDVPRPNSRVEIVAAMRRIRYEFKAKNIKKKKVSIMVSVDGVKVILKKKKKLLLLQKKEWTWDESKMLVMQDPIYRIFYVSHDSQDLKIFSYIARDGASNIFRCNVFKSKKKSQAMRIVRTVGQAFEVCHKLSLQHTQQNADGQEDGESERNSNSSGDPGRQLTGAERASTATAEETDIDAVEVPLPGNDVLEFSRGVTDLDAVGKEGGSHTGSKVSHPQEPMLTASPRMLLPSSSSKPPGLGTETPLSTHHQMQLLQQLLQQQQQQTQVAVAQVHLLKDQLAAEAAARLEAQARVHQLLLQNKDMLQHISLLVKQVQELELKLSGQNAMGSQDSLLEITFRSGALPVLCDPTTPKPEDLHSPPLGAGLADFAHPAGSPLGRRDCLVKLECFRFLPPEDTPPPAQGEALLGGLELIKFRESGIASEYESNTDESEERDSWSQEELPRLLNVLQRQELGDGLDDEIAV
UniProt Q9NPE2: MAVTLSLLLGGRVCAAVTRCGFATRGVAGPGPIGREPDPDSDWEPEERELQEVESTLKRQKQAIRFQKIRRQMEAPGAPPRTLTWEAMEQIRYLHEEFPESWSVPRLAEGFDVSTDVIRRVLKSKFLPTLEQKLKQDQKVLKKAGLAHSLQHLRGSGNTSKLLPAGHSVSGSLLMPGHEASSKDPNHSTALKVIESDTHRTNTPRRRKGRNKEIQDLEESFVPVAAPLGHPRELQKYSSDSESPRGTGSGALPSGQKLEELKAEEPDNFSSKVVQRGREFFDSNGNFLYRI
UniProt Q9BZ95: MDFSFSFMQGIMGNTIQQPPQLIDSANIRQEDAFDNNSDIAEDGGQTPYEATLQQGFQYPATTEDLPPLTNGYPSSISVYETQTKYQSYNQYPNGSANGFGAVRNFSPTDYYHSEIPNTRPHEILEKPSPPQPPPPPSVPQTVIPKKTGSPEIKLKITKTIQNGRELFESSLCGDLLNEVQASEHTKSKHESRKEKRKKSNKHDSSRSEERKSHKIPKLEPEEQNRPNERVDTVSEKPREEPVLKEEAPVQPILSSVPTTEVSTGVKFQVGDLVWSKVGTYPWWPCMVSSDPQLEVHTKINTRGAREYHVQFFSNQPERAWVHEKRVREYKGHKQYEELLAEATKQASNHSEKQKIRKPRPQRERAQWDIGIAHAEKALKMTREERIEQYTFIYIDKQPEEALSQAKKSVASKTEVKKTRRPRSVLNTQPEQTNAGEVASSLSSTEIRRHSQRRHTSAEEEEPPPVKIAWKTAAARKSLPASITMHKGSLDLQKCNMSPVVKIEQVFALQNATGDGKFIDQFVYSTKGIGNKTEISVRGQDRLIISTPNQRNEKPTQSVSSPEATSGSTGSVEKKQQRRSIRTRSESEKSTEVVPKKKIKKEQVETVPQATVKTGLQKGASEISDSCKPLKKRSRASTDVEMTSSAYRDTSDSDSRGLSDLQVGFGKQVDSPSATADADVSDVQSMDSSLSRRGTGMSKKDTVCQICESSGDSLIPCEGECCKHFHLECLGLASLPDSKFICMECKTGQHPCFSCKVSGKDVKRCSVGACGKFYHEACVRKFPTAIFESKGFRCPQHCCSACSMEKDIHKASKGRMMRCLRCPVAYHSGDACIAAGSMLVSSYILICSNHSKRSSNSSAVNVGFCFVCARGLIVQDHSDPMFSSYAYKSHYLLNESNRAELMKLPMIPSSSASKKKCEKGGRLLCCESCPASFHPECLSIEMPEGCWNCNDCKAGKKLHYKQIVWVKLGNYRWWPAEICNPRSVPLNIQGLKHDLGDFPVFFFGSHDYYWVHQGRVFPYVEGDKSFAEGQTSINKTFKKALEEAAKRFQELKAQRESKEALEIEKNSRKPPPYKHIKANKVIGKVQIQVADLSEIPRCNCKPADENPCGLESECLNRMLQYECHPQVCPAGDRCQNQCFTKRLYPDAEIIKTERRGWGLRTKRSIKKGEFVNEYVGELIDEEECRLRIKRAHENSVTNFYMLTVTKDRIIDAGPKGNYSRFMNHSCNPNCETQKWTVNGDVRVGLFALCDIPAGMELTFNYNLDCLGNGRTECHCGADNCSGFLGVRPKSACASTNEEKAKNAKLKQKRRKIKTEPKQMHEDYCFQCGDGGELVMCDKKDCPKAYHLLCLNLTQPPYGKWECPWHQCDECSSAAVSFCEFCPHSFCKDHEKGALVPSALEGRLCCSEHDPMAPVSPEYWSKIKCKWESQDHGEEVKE
UniProt P48645: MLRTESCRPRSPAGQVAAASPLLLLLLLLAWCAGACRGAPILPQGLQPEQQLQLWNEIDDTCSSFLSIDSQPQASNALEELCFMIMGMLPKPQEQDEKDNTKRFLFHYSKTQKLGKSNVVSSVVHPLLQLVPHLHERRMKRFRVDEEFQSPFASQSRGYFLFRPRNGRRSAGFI
UniProt Q92686, whole entry, looked up: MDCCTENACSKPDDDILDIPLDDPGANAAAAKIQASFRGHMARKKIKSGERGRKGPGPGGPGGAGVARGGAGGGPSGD
UniProt P04150: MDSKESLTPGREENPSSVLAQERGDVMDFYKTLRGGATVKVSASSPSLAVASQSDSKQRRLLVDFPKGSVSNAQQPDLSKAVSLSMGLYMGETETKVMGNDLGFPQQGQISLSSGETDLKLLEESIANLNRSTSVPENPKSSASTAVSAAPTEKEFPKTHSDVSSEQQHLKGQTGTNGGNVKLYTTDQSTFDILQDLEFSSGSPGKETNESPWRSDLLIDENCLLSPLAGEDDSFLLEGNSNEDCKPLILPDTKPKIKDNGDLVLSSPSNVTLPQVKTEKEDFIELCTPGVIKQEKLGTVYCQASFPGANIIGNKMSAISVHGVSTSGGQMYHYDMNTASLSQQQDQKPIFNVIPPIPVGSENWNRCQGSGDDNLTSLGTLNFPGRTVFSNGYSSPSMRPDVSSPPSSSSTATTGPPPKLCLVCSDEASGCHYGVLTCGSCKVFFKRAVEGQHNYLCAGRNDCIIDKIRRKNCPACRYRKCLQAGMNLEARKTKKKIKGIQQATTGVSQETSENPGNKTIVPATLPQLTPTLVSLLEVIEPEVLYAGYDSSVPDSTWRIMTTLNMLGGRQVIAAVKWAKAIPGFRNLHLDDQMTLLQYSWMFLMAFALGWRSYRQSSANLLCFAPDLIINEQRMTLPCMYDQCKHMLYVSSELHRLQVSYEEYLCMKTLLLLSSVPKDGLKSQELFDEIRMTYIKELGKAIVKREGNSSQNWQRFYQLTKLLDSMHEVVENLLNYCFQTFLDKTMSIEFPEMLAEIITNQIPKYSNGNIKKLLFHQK
UniProt Q9NPE3: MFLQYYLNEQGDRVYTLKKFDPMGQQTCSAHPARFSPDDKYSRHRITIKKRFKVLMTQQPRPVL
UniProt Q00653: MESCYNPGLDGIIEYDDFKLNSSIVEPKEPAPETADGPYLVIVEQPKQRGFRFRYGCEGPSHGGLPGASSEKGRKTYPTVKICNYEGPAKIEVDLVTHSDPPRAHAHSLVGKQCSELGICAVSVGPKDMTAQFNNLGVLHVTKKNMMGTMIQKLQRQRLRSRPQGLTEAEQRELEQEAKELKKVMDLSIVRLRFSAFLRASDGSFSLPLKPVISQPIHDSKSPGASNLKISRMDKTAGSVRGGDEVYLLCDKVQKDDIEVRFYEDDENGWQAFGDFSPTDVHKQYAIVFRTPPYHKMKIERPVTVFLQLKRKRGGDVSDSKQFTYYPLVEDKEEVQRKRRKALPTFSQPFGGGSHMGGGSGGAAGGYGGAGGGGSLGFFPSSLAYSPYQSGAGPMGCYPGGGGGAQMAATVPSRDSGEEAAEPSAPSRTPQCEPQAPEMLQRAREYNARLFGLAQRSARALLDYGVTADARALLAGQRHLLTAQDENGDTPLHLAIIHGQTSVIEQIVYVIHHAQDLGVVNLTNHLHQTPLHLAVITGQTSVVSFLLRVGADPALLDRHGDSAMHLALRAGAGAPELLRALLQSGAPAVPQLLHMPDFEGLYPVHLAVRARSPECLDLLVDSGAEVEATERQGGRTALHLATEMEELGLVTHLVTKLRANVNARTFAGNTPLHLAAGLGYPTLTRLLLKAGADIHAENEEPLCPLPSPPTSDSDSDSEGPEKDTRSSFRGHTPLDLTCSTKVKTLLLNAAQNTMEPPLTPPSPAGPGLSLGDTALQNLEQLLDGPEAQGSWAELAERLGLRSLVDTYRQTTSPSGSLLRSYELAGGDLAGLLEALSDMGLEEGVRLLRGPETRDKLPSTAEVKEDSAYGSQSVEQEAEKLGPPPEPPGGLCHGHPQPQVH
UniProt Q8WTT2: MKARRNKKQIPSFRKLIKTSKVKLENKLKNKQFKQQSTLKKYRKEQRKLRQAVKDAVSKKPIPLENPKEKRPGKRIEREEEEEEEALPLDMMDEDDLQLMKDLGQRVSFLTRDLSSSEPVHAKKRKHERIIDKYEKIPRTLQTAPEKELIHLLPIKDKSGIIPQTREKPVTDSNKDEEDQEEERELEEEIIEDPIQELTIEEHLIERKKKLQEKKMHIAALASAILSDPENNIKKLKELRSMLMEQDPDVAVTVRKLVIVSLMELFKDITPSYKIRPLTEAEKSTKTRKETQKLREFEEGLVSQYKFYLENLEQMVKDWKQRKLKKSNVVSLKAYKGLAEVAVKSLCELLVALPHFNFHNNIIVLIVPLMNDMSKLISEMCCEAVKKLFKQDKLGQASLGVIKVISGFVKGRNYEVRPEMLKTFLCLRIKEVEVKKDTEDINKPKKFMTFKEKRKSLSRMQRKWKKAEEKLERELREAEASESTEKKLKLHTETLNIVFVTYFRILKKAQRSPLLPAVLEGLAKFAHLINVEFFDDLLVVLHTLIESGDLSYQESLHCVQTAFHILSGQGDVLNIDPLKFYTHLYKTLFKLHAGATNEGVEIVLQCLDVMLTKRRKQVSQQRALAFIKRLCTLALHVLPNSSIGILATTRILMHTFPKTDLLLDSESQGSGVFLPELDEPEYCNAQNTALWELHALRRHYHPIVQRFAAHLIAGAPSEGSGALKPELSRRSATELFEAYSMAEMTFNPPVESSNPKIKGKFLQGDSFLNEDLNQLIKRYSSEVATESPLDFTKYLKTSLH
UniProt O00746: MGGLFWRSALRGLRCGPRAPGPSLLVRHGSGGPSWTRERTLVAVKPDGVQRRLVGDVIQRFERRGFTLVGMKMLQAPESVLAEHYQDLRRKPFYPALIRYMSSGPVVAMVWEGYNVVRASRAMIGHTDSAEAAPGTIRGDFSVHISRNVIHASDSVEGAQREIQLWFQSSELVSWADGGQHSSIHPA

Compound in the first assay: CCCS(=O)(=O)Nc1ccc(F)c(C(=O)c2c[nH]c3ncc(-c4ccc(Cl)cc4)cc23)c1F [vemurafenib]
The assay can be described thus: log2 fold change, soluble protein after heating vs DMSO (PISA); higher = thermal stabilisation; K562 cells, 10 uM, 30 min; active = over 0.2 and 3.5 SD of the protein, either way, in both replicates (recomputed). Summed up:
(§1)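 K562 cells at 2×10^6 cells/mL were exposed to 10 μM compound for 30 min, then aliquots were heated for 3 min across 48°C-58°C, pooled, and extracted in PBS containing 0.5% NP-40 at 4°C. The supernatant after 21,000xg for 90 min was taken as soluble protein and measured by TMTpro 16plex LC-MS/MS with channel sums equalised. Thermal stability is reported relative to control samples, with values from duplicates. Fold changes are given on a log2 scale.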
Turning to NFE2L1 (UniProt Q14494), the log2 fold change was inactive: 0.028.

Turning to NR2C1 (UniProt P13056), the log2 fold change was inactive: -0.006.

For the target NRM (UniProt Q8IXM6), the log2 fold change is inactive: 0.088.

Regarding NETO2 (UniProt Q8NC67), the log2 fold change was inactive: -0.019.

Take NKAP (UniProt Q8N5F7): the log2 fold change was inactive: 0.073.

Take NOP14 (UniProt P78316): the log2 fold change was inactive: 0.193.

With NFIC isoform 6 (UniProt P08651), the log2 fold change was inactive: 0.318.

In the case of NOS1AP (UniProt O75052), the log2 fold change is inactive: -0.335.

On to NEO1 (UniProt Q92859), for which the log2 fold change is inactive: 0.039.

On to NFKBIA (UniProt P25963), for which the log2 fold change is inactive: 0.137.

NGRN (UniProt Q9NPE2): the log2 fold change was inactive: -0.025.

For the target NSD3 (UniProt Q9BZ95), the log2 fold change is inactive: 0.017.

As for NMU (UniProt P48645), the log2 fold change is inactive: 0.067.

In the case of NELFCD (UniProt Q8IXH7), the log2 fold change is inactive: 0.15.

Compound in another assay: CCCS(=O)(=O)Nc1ccc(F)c(C(=O)c2c[nH]c3ncc(Cl)cc23)c1F
The description is as above. Summed up:
as §1
In the case of NFE2L1 (UniProt Q14494), the log2 fold change was inactive: 0.105.

On to NKTR (UniProt P30414), for which the log2 fold change was inactive: -0.4.

Turning to NRGN (UniProt Q92686), the log2 fold change is inactive: 0.032.

Consider NR3C1 isoform 3 (UniProt P04150), for which the log2 fold change was inactive: -0.149.

Regarding NIPBL (UniProt Q6KC79), the log2 fold change was inactive: 0.074.

As to NRM (UniProt Q8IXM6), the log2 fold change is inactive: 0.063.

As to NOP10 (UniProt Q9NPE3), the log2 fold change is inactive: -0.094.

Turning to NKAP (UniProt Q8N5F7), the log2 fold change was inactive: 0.046.

Turning to NRROS (UniProt Q86YC3), the log2 fold change is inactive: -0.191.

As to NEU3 isoform 2 (UniProt Q9UQ49), the log2 fold change is inactive: 0.133.

Regarding NOL8 (UniProt Q76FK4), the log2 fold change was inactive: 0.182.

On to NMNAT3 (UniProt Q96T66), for which the log2 fold change was inactive: -0.045.

As for NOS1AP (UniProt O75052), the log2 fold change is inactive: -0.161.

As for NGRN (UniProt Q9NPE2), the log2 fold change is inactive: -0.012.

Regarding NFKB2 (UniProt Q00653), the log2 fold change is inactive: -0.002.

On to NMU (UniProt P48645), for which the log2 fold change was inactive: -0.127.

For NELFCD (UniProt Q8IXH7), the log2 fold change was inactive: 0.051.

Compound in the next assay: CCCc1cc(C)[nH]c(=O)c1CNC(=O)c1cc(-c2ccnc(N3CCN(C)CC3)c2)cc2c1cnn2C(C)C
The assay is described as above. An outline of the steps: as §1
NKTR (UniProt P30414): the log2 fold change was inactive: -0.045.

On to NR2C1 (UniProt P13056), for which the log2 fold change is inactive: -0.15.

As for NR3C1 isoform 3 (UniProt P04150), the log2 fold change was inactive: 0.136.

Take NRM (UniProt Q8IXM6): the log2 fold change is inactive: -0.03.

With NOP10 (UniProt Q9NPE3), the log2 fold change was inactive: 0.027.

In the case of NKAP (UniProt Q8N5F7), the log2 fold change was inactive: 0.15.

Regarding NOC3L (UniProt Q8WTT2), the log2 fold change is inactive: -0.726.

Consider NOP14 (UniProt P78316), for which the log2 fold change is inactive: 0.204.

For NMNAT3 (UniProt Q96T66), the log2 fold change is inactive: 0.005.

Consider NIPSNAP2 (UniProt C9J7B1), for which the log2 fold change was inactive: -0.182.

With NOS1AP (UniProt O75052), the log2 fold change was inactive: 0.101.

As to NEO1 (UniProt Q92859), the log2 fold change is inactive: -0.216.

As for NKIRAS2 (UniProt Q9NYR9), the log2 fold change is inactive: 0.049.

Consider NGRN (UniProt Q9NPE2), for which the log2 fold change is inactive: 0.006.

As to NSD1 (UniProt Q96L73), the log2 fold change was inactive: 0.074.

As for NME4 (UniProt O00746), the log2 fold change was inactive: -0.023.

Regarding NFKB2 (UniProt Q00653), the log2 fold change is inactive: -0.165.
